Measured values published in patent US20210395356A1 (Chugai, published 2021).
No constants are given. Whether binding was seen depends on the method and setting. Some results given as binding are weak or reduced against the parent protein; the word gives no strength.

The chains behind the UniProt entries cited, without tags or fusion partners. Residues count along the entry.
UniProt P01137, residues 30-390: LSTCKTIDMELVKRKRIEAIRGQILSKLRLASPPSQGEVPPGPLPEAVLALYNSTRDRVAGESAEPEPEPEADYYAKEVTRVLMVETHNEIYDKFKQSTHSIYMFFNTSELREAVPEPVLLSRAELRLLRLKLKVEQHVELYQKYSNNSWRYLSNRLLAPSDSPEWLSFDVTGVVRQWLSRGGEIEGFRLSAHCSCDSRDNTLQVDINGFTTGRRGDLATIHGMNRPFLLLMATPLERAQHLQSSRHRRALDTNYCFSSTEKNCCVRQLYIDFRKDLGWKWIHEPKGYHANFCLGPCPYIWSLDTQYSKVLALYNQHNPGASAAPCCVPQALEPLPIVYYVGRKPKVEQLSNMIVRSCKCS
UniProt P04202, residues 30-390: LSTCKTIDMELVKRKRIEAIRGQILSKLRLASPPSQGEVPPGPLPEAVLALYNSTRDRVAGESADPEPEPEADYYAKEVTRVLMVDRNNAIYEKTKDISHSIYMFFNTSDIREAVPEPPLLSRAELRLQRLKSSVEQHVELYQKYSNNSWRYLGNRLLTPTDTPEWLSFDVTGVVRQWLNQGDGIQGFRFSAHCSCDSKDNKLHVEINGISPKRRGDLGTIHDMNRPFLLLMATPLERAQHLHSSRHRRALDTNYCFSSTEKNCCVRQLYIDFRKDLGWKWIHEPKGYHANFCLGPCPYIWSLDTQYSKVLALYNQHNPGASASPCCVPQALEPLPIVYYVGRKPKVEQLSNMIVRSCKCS

Columns and labels:
[1] = target: human cell surface latent TGF-beta 1 expressed on FreeStyle 293-F cells (human) (UniProt P01137); assay: FACS on FreeStyle 293-F cells expressing human latent TGF-beta 1, antibody at 10 microgram/mL, PE anti-human IgG secondary, MFI
[2] = target: mouse cell surface latent TGF-beta 1 expressed on Ba/F3 cells (mouse) (UniProt P04202); assay: FACS, antibody at 10 microgram/mL on Ba/F3 cells
[3] = target: human cell surface latent TGF-beta 1 expressed on FreeStyle 293-F cells (human) (UniProt P01137); assay: FACS, antibody at 10 microgram/mL on FreeStyle 293-F cells
[4] = target: mouse cell surface latent TGF-beta 1 expressed on Ba/F3 cells (mouse) (UniProt P04202); assay: FACS on Ba/F3 cells expressing mouse latent TGF-beta 1, antibody at 10 microgram/mL, PE anti-human IgG secondary, MFI

Measured: binding

B1: hT0947AE09-SG191 (antibody, IgG1, V domains shown)
VH: QVQLVESGGGVVQPGRSLRLSCAASGFTFSSYAMNWIRQPPGKGLEWIGYIYTSGTRYRANWARGRFTISRDNSKNTLYLQMNSLRAEDTAVYYCARGTDIYDYYYWVMDLWGPGTLVTVSS
VL: DIQMTQSPSSLSASVGDRVTITCQASQSISTYLAWYQQKPGQPPKLLIYAASTLESGVPSRFSGSGSGTDFTLTISSLQPEDFATYYCQSYSDADSVGFGQGTKVEIKR
notes: Humanized, optimized IgG1; also called hT0947AE09-5G191; hT0947A09-SG191
binds: all assays above
